# Test results: paper PMC8980529
# Protein sequences, listed by entry. Tags and fused reporters are not part of them. Lines headed by an entry give the natural chain unless they say otherwise; changes in a name come on top. Residues count along the entry.
# UniProt Q03591, residues 19-330: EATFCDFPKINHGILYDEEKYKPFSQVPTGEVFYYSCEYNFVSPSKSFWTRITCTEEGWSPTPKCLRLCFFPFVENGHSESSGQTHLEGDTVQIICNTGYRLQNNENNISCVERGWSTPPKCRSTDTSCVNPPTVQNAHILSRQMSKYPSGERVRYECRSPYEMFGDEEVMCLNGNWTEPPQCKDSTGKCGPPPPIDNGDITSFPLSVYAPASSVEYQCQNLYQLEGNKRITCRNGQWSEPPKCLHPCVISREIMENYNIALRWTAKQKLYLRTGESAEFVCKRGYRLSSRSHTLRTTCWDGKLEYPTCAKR
# UniProt Q02985, residues 19-330: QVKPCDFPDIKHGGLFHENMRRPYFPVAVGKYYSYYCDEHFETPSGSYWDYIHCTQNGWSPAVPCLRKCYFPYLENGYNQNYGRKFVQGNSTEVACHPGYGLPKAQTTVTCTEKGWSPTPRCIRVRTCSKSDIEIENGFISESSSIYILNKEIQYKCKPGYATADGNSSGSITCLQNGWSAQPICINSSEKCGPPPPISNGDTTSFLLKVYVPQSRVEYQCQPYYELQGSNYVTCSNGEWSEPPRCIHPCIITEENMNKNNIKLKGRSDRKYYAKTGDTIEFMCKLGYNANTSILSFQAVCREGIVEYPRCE
# UniProt P36980, residues 19-270: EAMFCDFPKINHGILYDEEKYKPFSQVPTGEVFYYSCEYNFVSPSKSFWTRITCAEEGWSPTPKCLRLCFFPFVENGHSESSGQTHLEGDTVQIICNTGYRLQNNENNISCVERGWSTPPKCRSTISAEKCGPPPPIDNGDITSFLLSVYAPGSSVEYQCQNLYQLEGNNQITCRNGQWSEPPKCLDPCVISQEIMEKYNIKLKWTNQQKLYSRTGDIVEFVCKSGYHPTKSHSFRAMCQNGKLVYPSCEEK
# UniProt P27918, residues 28-469: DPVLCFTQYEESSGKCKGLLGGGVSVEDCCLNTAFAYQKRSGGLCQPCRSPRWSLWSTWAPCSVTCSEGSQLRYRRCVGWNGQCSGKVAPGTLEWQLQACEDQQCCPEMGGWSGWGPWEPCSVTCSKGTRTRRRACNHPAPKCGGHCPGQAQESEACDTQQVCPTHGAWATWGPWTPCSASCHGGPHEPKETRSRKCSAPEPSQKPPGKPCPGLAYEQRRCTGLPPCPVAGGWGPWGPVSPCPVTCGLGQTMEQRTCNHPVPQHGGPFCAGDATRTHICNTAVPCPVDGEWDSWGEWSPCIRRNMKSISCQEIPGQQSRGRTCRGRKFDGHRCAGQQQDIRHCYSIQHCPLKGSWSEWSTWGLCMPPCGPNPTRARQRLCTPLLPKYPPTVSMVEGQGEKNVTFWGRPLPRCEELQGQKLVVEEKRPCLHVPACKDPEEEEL
# UniProt P01024: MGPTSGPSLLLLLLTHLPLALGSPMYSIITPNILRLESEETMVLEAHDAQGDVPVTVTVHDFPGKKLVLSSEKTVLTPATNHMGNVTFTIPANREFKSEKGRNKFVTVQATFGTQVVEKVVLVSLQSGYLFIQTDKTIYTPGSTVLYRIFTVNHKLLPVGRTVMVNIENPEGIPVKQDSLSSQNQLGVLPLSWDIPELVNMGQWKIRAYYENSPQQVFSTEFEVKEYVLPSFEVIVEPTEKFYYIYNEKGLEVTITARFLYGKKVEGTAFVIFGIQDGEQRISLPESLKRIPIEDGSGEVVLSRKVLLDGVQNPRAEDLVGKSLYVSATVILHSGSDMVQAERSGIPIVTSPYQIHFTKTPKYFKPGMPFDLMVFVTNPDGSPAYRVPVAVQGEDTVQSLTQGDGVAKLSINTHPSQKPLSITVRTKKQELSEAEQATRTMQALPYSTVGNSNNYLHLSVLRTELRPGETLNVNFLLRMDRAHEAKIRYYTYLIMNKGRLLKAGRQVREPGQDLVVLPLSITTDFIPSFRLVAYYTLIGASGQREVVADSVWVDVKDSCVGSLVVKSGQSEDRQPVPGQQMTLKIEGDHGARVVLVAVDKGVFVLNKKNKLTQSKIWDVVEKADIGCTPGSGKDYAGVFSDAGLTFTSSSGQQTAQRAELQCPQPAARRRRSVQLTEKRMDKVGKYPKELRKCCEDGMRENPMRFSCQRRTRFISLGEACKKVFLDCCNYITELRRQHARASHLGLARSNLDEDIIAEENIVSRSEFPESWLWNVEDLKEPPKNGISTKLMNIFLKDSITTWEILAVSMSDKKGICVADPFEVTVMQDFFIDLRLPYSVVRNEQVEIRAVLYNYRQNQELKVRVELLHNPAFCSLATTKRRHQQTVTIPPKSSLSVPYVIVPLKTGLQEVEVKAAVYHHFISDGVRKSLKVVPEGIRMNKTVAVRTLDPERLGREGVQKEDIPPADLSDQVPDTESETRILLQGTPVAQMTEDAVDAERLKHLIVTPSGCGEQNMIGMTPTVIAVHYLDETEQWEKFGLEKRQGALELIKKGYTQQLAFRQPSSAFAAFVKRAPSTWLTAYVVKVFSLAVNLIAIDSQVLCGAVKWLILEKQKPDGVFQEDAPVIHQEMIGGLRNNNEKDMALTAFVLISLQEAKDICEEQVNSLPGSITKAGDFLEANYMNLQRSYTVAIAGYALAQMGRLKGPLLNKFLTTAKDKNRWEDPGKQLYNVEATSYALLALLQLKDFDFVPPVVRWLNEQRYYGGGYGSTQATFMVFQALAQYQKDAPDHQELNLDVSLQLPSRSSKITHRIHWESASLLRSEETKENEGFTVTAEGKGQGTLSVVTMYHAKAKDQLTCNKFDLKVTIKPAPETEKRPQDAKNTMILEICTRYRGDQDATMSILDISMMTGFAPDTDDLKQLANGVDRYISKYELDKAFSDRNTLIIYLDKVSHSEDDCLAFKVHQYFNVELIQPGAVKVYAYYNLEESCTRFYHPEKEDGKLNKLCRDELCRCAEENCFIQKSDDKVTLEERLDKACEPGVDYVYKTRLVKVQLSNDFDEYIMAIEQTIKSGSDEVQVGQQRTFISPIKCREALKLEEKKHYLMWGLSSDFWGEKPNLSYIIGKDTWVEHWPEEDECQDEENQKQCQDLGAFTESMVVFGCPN
# UniProt P08603, residues 19-1231: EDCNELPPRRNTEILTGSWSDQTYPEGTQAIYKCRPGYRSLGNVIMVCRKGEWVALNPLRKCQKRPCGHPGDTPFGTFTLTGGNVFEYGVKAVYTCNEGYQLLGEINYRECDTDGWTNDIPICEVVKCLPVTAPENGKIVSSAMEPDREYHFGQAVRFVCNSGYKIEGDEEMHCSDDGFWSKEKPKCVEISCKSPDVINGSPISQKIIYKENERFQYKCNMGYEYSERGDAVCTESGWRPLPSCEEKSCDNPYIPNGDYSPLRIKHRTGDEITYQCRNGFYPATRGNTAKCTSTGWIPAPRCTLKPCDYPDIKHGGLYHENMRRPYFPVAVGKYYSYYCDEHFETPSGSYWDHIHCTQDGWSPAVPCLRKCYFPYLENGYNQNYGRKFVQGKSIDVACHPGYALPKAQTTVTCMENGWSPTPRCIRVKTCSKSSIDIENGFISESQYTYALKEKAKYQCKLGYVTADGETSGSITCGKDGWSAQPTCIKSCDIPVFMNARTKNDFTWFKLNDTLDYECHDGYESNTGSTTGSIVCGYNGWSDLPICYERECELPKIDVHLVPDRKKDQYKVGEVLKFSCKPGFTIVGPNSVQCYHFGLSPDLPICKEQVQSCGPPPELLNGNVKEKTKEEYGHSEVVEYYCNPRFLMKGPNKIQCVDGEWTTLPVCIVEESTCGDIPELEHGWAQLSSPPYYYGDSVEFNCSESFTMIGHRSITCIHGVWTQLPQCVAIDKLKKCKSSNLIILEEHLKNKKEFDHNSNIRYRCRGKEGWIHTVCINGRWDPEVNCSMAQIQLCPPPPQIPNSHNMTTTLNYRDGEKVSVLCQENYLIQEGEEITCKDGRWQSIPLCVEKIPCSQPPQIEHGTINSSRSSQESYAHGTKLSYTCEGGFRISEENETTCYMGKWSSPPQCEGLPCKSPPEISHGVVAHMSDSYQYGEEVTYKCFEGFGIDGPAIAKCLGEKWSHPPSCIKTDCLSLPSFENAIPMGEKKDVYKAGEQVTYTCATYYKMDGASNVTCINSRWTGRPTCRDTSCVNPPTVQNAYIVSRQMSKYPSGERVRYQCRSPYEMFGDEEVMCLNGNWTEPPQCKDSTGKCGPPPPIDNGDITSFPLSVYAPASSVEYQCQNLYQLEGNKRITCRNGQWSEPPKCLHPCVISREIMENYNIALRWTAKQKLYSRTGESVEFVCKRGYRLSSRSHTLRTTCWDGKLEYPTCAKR
# No constants are given. Whether binding was seen depends on the method and setting. Some results given as binding are weak or reduced against the parent protein; the word gives no strength.
# Assays:
# [1] = target: Recombinant human factor H-related protein 1 (human) (UniProt Q03591); assay: ELISA; FHR proteins, FHR5 fragments and C3b immobilised at 5 µg/ml in DPBS with Mg2+ and Ca2+; 20 µg/ml of the properdin forms added at 20°C for 1 hr; detected with anti-properdin mAb A235; both purified
# [2] = target: Recombinant human FHR3 (human) (UniProt Q02985); assay: as above
# [3] = target: T1, Recombinant human factor H-related protein 5 (human) (UniProt Q9BXR6); assay: as above
# T1 sequence: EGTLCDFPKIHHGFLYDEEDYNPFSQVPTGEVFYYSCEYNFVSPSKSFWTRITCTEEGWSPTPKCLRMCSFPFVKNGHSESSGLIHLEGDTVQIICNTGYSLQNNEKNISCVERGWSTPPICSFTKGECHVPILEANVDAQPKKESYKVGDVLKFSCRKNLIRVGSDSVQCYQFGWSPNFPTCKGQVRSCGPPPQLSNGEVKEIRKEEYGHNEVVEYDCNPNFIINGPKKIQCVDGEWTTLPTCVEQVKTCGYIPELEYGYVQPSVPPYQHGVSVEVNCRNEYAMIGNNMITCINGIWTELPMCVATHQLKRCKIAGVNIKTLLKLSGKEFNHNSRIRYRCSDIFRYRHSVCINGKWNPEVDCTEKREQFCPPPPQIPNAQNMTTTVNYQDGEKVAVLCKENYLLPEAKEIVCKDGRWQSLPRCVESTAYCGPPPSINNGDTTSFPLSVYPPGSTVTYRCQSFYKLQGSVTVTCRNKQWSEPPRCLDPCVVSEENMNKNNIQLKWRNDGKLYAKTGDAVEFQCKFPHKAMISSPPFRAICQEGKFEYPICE
# [4] = target: Recombinant human FHR2 (human) (UniProt P36980); assay: as above
# [5] = target: T1, Recombinant human factor H-related protein 5 (human); assay: ELISA; FHR5, CCPs 1-4, CCPs 3-7, CCPs 8-9 and HSA immobilised at 5 µg/ml, blocked with 4% BSA; 20 µg/ml C3b, iC3b, C3c or 10 µg/ml C3d added; detected with anti-human C3 or anti-human C3d; both purified
# [6] = target: T2, Osteoadherin (UniProt Q99983); assay: ELISA; laminin, fibromodulin, osteoadherin, PRELP and HSA coated (5 µg/ml; legend: 10 µg/ml), incubated with FHR1 (5 or 10 µg/ml); detected with goat anti-human FH; both purified
# T2 sequence: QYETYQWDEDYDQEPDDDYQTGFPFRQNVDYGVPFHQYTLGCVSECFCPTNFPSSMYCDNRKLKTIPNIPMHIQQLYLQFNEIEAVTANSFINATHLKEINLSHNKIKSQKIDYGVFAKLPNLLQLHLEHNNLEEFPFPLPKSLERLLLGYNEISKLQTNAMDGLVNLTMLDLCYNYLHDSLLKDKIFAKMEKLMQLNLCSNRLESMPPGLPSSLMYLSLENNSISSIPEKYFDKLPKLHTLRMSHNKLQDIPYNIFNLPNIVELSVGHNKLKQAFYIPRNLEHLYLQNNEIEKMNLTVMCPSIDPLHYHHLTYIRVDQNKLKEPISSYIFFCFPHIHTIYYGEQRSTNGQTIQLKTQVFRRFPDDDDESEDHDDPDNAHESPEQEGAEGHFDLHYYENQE
# [7] = target: T3, Proline/arginine-rich end leucine-rich repeat protein (UniProt P51888); assay: as above
# T3 sequence: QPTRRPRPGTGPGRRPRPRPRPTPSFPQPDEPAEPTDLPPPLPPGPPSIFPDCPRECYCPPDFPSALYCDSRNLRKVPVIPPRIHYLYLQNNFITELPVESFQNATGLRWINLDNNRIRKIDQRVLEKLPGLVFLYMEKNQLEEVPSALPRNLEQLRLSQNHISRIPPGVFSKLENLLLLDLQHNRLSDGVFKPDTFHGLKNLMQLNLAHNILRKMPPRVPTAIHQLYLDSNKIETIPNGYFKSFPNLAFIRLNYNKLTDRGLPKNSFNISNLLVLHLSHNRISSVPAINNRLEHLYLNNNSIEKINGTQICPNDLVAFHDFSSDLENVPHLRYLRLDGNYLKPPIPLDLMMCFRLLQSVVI
# [8] = target: T4, Fibromodulin (UniProt Q06828); assay: as above
# T4 sequence: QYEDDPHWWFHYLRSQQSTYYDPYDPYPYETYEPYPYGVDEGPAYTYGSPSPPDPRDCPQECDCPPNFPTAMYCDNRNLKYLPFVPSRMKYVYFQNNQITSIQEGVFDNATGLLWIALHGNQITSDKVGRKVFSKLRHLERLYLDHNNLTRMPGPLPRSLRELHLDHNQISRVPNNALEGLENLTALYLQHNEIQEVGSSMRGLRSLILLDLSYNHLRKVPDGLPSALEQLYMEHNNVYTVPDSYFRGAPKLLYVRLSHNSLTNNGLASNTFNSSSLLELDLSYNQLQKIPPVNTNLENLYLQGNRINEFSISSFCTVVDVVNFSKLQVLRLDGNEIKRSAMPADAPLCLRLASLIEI
# [9] = target: T2, Osteoadherin; assay: peptide or protein array; ECM proteins (0.5 mg/ml) printed on nitrocellulose-covered slides in triplicates, blocked with 4% BSA; incubated with FHR1 (5, 25, 50 µg/ml) or FHR5 (0.5, 5, 20 µg/ml); detected with goat anti-human FH or anti-FHR5 and Alexa-647 anti-goat IgG; signal above gelatin taken as binding; both purified
# [10] = target: T3, Proline/arginine-rich end leucine-rich repeat protein; assay: as above
# [11] = target: T2, Osteoadherin; assay: peptide or protein array; competition: printed ECM proteins incubated with 25 µg/ml FH with or without FHR1 (5, 25, 50 µg/ml) or FHR5 (0.5, 5, 20 µg/ml); bound FH detected with mAb A254 that does not cross-react with FHR1 and FHR5; both purified
# [12] = target: T3, Proline/arginine-rich end leucine-rich repeat protein; assay: as above
# [13] = target: T4, Fibromodulin; assay: as above
# [14] = target: T2, Osteoadherin; assay: ELISA; competition: immobilised ECM proteins (10 µg/ml) incubated with 50 µg/ml FH in the presence or absence of 20 µg/ml FHR5; bound FH detected with mAb A254; both purified
# [15] = target: T3, Proline/arginine-rich end leucine-rich repeat protein; assay: as above
# [16] = target: T4, Fibromodulin; assay: as above
binding [1],binding [2],binding [3],binding [4],Substance,other results
no binding (tested: 20 µg/ml),no binding (tested: 20 µg/ml),no binding (tested: 20 µg/ml),no binding (tested: 20 µg/ml),Purified properdin tetramers (from UniProt P27918 28-469),
no binding (tested: 20 µg/ml),no binding (tested: 20 µg/ml),no binding (tested: 20 µg/ml),no binding (tested: 20 µg/ml),Purified properdin dimers (from UniProt P27918 28-469),
,,,,Purified human C3c (from UniProt P01024 23-667; P01024 749-954; P01024 1321-1663),binding [5]: no binding (tested: 20 µg/ml)
,,no binding (tested: 20 µg/ml),,Purified commercial properdin (from UniProt P27918 28-469),
no binding (tested: 20 µg/ml),no binding (tested: 20 µg/ml),no binding (tested: 20 µg/ml),no binding (tested: 20 µg/ml),Purified properdin trimers (from UniProt P27918 28-469),
,,,,Recombinant human factor H-related protein 1 (from UniProt Q03591 19-330),binding [6]: binds; binding [7]: binds; binding [8]: binds; binding [9]: binds; binding [10]: binds
,,,,Purified human factor H (from UniProt P08603 19-1231),binding [11]: binds; binding [12]: binds; binding [13]: binds; binding [14]: binds; binding [15]: binds; binding [16]: binds
